Some results were stated once for a whole list of compounds, not compound by compound. At least one structure is not confirmed: it was looked up by name or label, or the drawing left a doubt.
Tests used:
[1] = test system: Necrotic Enteritis strain of C. perfringens; type: cell-based, Clostridium perfringens; settings: against all 6 strains
[2] = test system: clinical isolate of C. difficile; assay: In vitro MIC and MBC against Clostridium difficile (Example 6); type: cell-based; settings: against CD (C. difficile)

With `COc1cc2c(cc1OC)-c1cc3ccc(OC)c(OC)c3c[n+]1CC2` [palmatine] the MIC [1] was “of 62.5-125 μg/ml against all 6 strains”, the MBC [2] was 880-1000 μg/ml against CD and the MIC [2] was “of 640-820 μg/ml against CD”.

— patent US20240306670A1, “BERBERINE ALKALOIDS IN THE PREVENTION AND/OR TREATMENT OF INTESTINAL DISEASE” (priority 2017, published 2024)
